From ChEMBL document CHEMBL3988442, “University of Dundee, Small-Polar-MMV Screening Library” (2021).

By UniProt entry, the sequences of proteins in these tests, tags left out. Residues count along the entry.
UniProt P9WFT3, whole entry: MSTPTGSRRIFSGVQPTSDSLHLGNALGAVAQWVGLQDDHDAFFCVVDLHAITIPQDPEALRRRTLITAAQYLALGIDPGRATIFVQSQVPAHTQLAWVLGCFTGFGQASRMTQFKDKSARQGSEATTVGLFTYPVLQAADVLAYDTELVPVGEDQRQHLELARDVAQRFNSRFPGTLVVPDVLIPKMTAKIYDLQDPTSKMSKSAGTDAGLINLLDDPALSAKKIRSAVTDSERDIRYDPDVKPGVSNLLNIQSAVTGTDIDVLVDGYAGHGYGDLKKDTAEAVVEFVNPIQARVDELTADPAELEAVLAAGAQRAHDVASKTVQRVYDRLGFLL
UniProt Q8IDJ8, 1-583: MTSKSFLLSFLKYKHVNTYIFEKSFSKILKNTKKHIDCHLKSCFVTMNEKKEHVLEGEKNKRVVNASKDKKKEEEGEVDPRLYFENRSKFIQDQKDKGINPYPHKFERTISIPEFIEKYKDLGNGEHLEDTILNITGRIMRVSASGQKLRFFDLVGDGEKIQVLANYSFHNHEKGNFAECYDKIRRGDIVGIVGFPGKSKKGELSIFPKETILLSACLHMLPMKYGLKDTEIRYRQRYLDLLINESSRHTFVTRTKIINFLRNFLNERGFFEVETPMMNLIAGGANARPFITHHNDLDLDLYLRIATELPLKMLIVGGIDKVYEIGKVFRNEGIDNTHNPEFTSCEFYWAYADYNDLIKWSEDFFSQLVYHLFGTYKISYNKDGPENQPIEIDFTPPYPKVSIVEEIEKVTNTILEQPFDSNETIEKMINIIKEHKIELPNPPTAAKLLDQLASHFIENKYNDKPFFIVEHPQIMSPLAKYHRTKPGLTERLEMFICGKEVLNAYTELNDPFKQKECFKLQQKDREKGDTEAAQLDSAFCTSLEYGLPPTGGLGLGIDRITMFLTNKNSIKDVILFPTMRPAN
UniProt P9WPC5, whole entry: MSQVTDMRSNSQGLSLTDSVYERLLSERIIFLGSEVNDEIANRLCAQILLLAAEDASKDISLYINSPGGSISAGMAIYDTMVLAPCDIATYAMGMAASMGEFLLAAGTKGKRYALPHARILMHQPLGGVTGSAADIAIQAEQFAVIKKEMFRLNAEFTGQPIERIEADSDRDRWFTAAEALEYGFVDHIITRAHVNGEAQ
UniProt P9WPC3, whole entry partner: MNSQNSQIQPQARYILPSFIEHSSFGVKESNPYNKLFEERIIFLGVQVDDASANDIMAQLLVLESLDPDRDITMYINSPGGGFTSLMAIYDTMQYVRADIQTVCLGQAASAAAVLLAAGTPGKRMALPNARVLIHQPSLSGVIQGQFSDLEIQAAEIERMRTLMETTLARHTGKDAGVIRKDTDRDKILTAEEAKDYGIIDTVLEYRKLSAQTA

MtTrpRS: 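Enzyme assay of tryptophanyl-tRNA synthetase; the read-out is not stated. Target: Tryptophan-tRNA ligase, Mycobacterium tuberculosis (UniProt P9WFT3). Concentration: 10 µM. Direction is not recorded; retested compounds ran higher, which suggests that high means inhibition. About 65,000 compounds were tested under these conditions; 0.098% (about 64) showed 50% or more at least once.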
PfKRS1: 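Enzyme assay of the cytosolic lysyl-tRNA synthetase in 384-well plates, read by luminescence. Target: Lysine-tRNA ligase, Plasmodium falciparum 3D7 (UniProt Q8IDJ8). Compounds at 30 µM. Higher reads as stronger inhibition, judged from the few compounds that gave an IC50. About 69,000 compounds were tested under these conditions; 0.071% (about 49) showed 50% or more at least once.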
ClpP1P2: 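ClpP1P2, Mycobacterium tuberculosis (UniProt P9WPC5 and UniProt P9WPC3). Protease assay of ClpP1P2, read by the AMC dye that it sets free. Concentration: 50 µM. Higher reads as stronger inhibition, judged from the few compounds that gave an IC50. Most other retested compounds had strongly negative values. Of about 69,000 compounds tested this way, about 10 (0.015%) reached 50% or more in at least one test.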

Each number is a percent effect as filed. How 0% and 100% were set is not recorded. Most values in the screen are low, and negative values occur. The compounds are a random part of those screened. A dash means the value is not listed here; it may have been measured.

| # | Compound | MtTrpRS | PfKRS1 | ClpP1P2 |
|---|---|---|---|---|
| 1 | `CCNC(=O)C1CCN(c2cc(-c3ccccc3)nc3cc(C)nn23)C1` (centres unmarked) | -5.307% | 3.783% | -22.33% |
| 2 | `COc1ccc(Cc2ncc3c(n2)CN(C(=O)C(C)(C)C)C3)cc1` | -1.308% | 2.528% | -7.11% |
| 3 | `CCN(Cc1ccncc1)CC1(O)CCN(C(=O)c2cccc(C)c2)C1` (centres unmarked) | -2.493% | 0.3149% | 2.721% |
| 4 | `CCOCCn1nc(C)cc1C(=O)N1CC(C)(C)[C@@](C)(O)C1` | 0.6522% | 2.365% | -15.24% |
| 5 | `COCCN(C)C(=O)c1cc2c(s1)CCN2C(=O)C1CC1` | - | 2.848% | 14.53% |
| 6 | `Cc1nn(C)c(N2CCCN(C)CC2)c1CNC(=O)CCC(C)C` | -2.562% | 4.384% | -2.26% |
| 7 | `COCCN(C)CCN1CC2(CCN(C3CCCCC3)CC2)OC1=O` | -0.2174% | 6.974% | -16.43% |
| 8 | `COCC(=O)NCCn1ccc2c(OC)cccc21` | 0.603% | 4.653% | 5.975% |
| 9 | `O=C(c1ccco1)N1CC[C@H]2[C@H]1CC(=O)N2c1cccnc1` | 0.08176% | 2.372% | 6.853% |
| 10 | `CC(=O)NC1CCN(C(=O)c2cnc(COc3ccccc3)nc2O)C1` (centres unmarked) | 1.385% | 0.6283% | -5.216% |
| 11 | `Cc1ccsc1C(=O)NCc1cccnc1N(C)CCc1ccccn1` | 0.6937% | 10.29% | -2.382% |
| 12 | `COCCN1C(=O)C[C@@H]2[C@H]1CCN2C(=O)c1ccc[nH]1` | -0.9009% | 1.594% | -8.177% |
| 13 | `COc1ccc(CC(=O)N2CCC(Nc3ccc(C)nn3)CC2)cc1` | 4.117% | -0.6888% | -9.369% |
| 14 | `CCCS(=O)(=O)N1CCC(Oc2ccc(C#N)cc2)CC1` | -0.8602% | -1.909% | -14.46% |
| 15 | `CC(C)c1nc(CN2CCC(CO)CC2)cs1` | 1.871% | 3.32% | 8.351% |
| 16 | `Cc1ccc(S(=O)(=O)N2C[C@H]3C[C@H](NC(=O)c4cnn(C)c4)[C@H]3C2)cc1` | - | -0.9356% | -13.07% |
| 17 | `Cn1cncc1CN1CCC(O)(Cn2nc(-c3cccs3)oc2=O)CC1` | -3.763% | 1.674% | -15.98% |
| 18 | `CCS(=O)(=O)CCN1CCN(C2CCC(C(C)C)CC2)CC1` (centres unmarked) | 8.978% | -1.339% | -6.991% |
| 19 | `O=C(O)c1ccc2c(c1)C1(CCCCC1)CN2C(=O)c1cccc(F)c1` | 10.25% | 1.051% | -12.22% |
| 20 | `Cc1cnn(CC(=O)Nc2cc(-n3nnnc3C3CC3)ccc2F)c1` | -3.382% | 7.459% | -5.246% |
| 21 | `CC(C)C(NC(=O)c1nc(N2CCOCC2)ncc1Cl)c1cccs1` (centres unmarked) | -6.351% | 6.314% | 6.181% |
| 22 | `Cc1nn(C)c(C)c1C1CCCN1Cc1cccc(OCC(N)=O)c1` (centres unmarked) | -1.834% | -0.171% | -9.459% |
| 23 | `O=C1CCC2(CCN(S(=O)(=O)c3ccccc3)CC2)N1CC1CC1` | -5.416% | 2.914% | -5.631% |
| 24 | `N#Cc1ccc(Cn2cncn2)c(F)c1` | -7.243% | 5.708% | 2.647% |
| 25 | `CC(C)c1nc2n(n1)CC(NCCc1cccs1)CC2` (centres unmarked) | -6.21% | 5.519% | -0.7781% |
| 26 | `COCCN1C(=O)CC(N2CCN(c3ccccc3)CC2)C1=O` (centres unmarked) | -1.018% | 4.647% | -7.372% |
| 27 | `Cc1nc(Nc2ccccn2)cc(C2CCCN2C2CCOCC2)n1` (centres unmarked) | - | 2.35% | -3.561% |
| 28 | `COCc1nc2cc(NCc3scnc3C)ccc2o1` | 8.259% | 13.58% | -1.374% |
| 29 | `O=c1cc(CSc2nnc[nH]2)nc2sc3c(n12)CCCC3` | 4.355% | 6.297% | -9.466% |
| 30 | `CCOCCNC(=O)Nc1cccc(-c2nccn2C)c1` | -4.155% | -1.314% | -6.226% |
| 31 | `O=C(NCC(O)c1ccccc1C(F)(F)F)c1cccnc1` (centres unmarked) | 1.188% | -1.773% | 3.392% |
| 32 | `Cc1cc(C)c(S(N)(=O)=O)cc1C(=O)NCCN1CCCCC1` | -2.184% | 5.368% | 6.342% |
| 33 | `CN(Cc1cnn(C)c1)C(=O)NC1CCS(=O)(=O)C1` (centres unmarked) | 1.896% | 3.412% | 3.474% |
| 34 | `CCc1nnc2n1CCN(CCC(=O)Nc1cc(C)on1)C2` | -1.221% | 14.73% | -5.618% |
| 35 | `Cc1ccc(-c2nc(CNS(=O)(=O)N(C)C)[nH]c2-c2ccccn2)cc1` | 0.3882% | -0.9388% | 0.7672% |
| 36 | `Cc1ccccc1C(=O)CN1C(=O)c2ccccc2CS1(=O)=O` | -3.638% | -0.37% | 3.06% |
| 37 | `COc1cc(C)ccc1OCCC(=O)N1CCC(N2CC=CC2)C1` (centres unmarked) | -1.774% | 2.038% | -16.37% |
| 38 | `COCCN1C(=O)[C@H]2CC[C@@H]1CN(S(=O)(=O)c1ccc(OC)cc1)C2` | 5.986% | 5.859% | -14.52% |
| 39 | `Cc1cc(NC(=O)N2CCCC2C(=O)NC2CC2)c2ncccc2c1` (centres unmarked) | 0.7712% | -1.521% | -12.55% |
| 40 | `Cc1cccc(C(=O)N2CC(Cc3nccc4ccn(C)c34)C2)n1` | - | 0.4488% | 3.15% |
| 41 | `COC(=O)c1ccc(C(=O)NCC2(O)CCOCC2)cc1` | 4.989% | 3.245% | 2.003% |
| 42 | `O=C1N(CCc2ccccc2)CCCC12CCN(C(CO)CO)C2` (centres unmarked) | 3.133% | 1.548% | -6.31% |
| 43 | `O=C1CC(N(C(=O)c2ccc(Cl)c(Cl)c2)C2CC2)C(=O)N1` (centres unmarked) | -3.553% | -1.039% | -32.23% |
| 44 | `CCc1noc(CN(C)C(=O)COc2cccc(Cl)c2C)n1` | -4.161% | 5.24% | 10.4% |
| 45 | `CCN1CCC2(COCc3c(C)nc(N4CCOCC4)nc32)C1` (centres unmarked) | 5.862% | -6.125% | -10.79% |
| 46 | `COCCN(Cc1ccco1)Cc1nc(-c2ccsc2)no1` | 3.85% | -5.157% | -14.41% |
| 47 | `CCOc1ncccc1CNc1nnc(C)c(C)c1C#N` | 4.354% | 1.838% | -22.16% |
| 48 | `CCC(=O)N1CCc2[nH]cnc2C12CCN(CC1CCOC1)CC2` (centres unmarked) | 1.338% | 0.2729% | 2.208% |
| 49 | `O=C1[C@@H]2CN(c3ncc(Cl)cc3F)C[C@]2(C(=O)O)CN1CC1CC1` | 4.992% | 2.981% | -11.32% |
| 50 | `O=C(NCCCOCC1CCCO1)c1cccnc1N1CCOCC1` (centres unmarked) | -2.389% | 2.178% | 0.4702% |
| 51 | `O=C(Nc1cnc2n1CCCC2)C1CCNCC1` | 1.111% | 2.475% | 4.561% |
| 52 | `O=C1CCC(C(=O)N2CCC(Cn3cc(C4CCCC4)nn3)CC2)=NN1` | 3.038% | -4.444% | -3.75% |
| 53 | `Cc1ncc(CNC2CC(=O)N(CCc3ccc(F)cc3)C2)n1C` (centres unmarked) | -3.382% | -2.216% | -10.92% |
| 54 | `CCc1nc(CN2CCN(CC(O)c3ccccc3)CC2)no1` (centres unmarked) | 17.76% | -2.186% | -14.61% |
| 55 | `CC(C)C(=O)N1CCCC([C@@H]2C[C@H](C(F)F)n3ncnc3N2)C1` (some centres unmarked) | -0.651% | -2.406% | 6.504% |
| 56 | `O=C(CNC(=O)N1CCc2c([nH]c3ccc(Cl)cc23)C1)NC1CCCC1` | 0.07003% | -1.261% | 3.325% |
| 57 | `Cc1nn(C)c2nc(N3CCCCC3c3cccnc3)sc12` (centres unmarked) | 2.545% | 4.086% | -8.811% |

Some entries from above, unchanged:

* O=c1cc(CSc2nnc[nH]2)nc2sc3c(n12)CCCC3 | MtTrpRS: 4.355%; PfKRS1: 6.297%; ClpP1P2: -9.466%
* COCCN1C(=O)C[C@@H]2[C@H]1CCN2C(=O)c1ccc[nH]1 | MtTrpRS: -0.9009%; PfKRS1: 1.594%; ClpP1P2: -8.177%
* CCN1CCC2(COCc3c(C)nc(N4CCOCC4)nc32)C1 (centres unmarked) | MtTrpRS: 5.862%; PfKRS1: -6.125%; ClpP1P2: -10.79%
* Cc1cc(NC(=O)N2CCCC2C(=O)NC2CC2)c2ncccc2c1 (centres unmarked) | MtTrpRS: 0.7712%; PfKRS1: -1.521%; ClpP1P2: -12.55%
* O=C1CCC(C(=O)N2CCC(Cn3cc(C4CCCC4)nn3)CC2)=NN1 | MtTrpRS: 3.038%; PfKRS1: -4.444%; ClpP1P2: -3.75%